In patent US20060257938A1, “Method of screening for drugs that block ligand binding to a lipid binding protein” (priority 2005, published 2006) one finds AvgOfRo and Ro data, which are given here for 13 molecules.

Changes are numbered by the printed parent chain.

B1: 55K1, 72A (protein, listed as Rattus norvegicus)
chain: AFDGTWKVDRNENYEKFMEKMGINVVKRKLGAHDNLKLTITQEGNKFTVKESSNKRNIDVVFELGVDFAYSAADGTELTGTWTMEGNKLVGKFKRVDNGKELIAVREISGNELIQTYTYEGVEAKRIFKKE
modifications: PEPTIDE (1)...(131) wild-type rat intestinal fatty acid binding protein
B2: 55P1, 72A (protein, listed as Rattus norvegicus)
chain: B1 chain with K55P
modifications: PEPTIDE (1)...(131) wild-type rat intestinal fatty acid binding protein
B3: 55L1, 72A (protein, listed as Rattus norvegicus)
chain: B1 chain with K55L
modifications: PEPTIDE (1)...(131) wild-type rat intestinal fatty acid binding protein
B4: 55M1, 72A (protein, listed as Rattus norvegicus)
chain: B1 chain with K55M
modifications: PEPTIDE (1)...(131) wild-type rat intestinal fatty acid binding protein
B5: 60C, 72A (protein, listed as Rattus norvegicus)
chain: B1 chain with K55F, V60C
modifications: PEPTIDE (1)...(131) wild-type rat intestinal fatty acid binding protein
B6: 60A, 72A (protein, listed as Rattus norvegicus)
chain: B1 chain with K55F, V60A
modifications: PEPTIDE (1)...(131) wild-type rat intestinal fatty acid binding protein
B7: 55R1, 72A (protein, listed as Rattus norvegicus)
chain: B1 chain with K55R
modifications: PEPTIDE (1)...(131) wild-type rat intestinal fatty acid binding protein
B8: 55N1, 72A (protein, listed as Rattus norvegicus)
chain: B1 chain with K55N
modifications: PEPTIDE (1)...(131) wild-type rat intestinal fatty acid binding protein
B9: 55S1, 72A (protein, listed as Rattus norvegicus)
chain: B1 chain with K55S
modifications: PEPTIDE (1)...(131) wild-type rat intestinal fatty acid binding protein
B10: 55W2, 72A (protein, listed as Rattus norvegicus)
chain: B1 chain with K55W
modifications: PEPTIDE (1)...(131) wild-type rat intestinal fatty acid binding protein
B11: 55Q1, 72A (protein, listed as Rattus norvegicus)
chain: B1 chain with K55Q
modifications: PEPTIDE (1)...(131) wild-type rat intestinal fatty acid binding protein
B12: 55Y3, 72A (protein, listed as Rattus norvegicus)
chain: B1 chain with K55Y
modifications: PEPTIDE (1)...(131) wild-type rat intestinal fatty acid binding protein
B13: 55T1, 72A (protein, listed as Rattus norvegicus)
chain: B1 chain with K55T
modifications: PEPTIDE (1)...(131) wild-type rat intestinal fatty acid binding protein

A short description of one series: Baseline fluorescence ratio Ro of probe in absence of analyte. Conditions: average baseline fluorescence ratio Ro of the clone probe; substitutions with respect to SEQ ID NO: 2.
Turning to B1, the AvgOfRo was found to be 0.30.
The same measure, in the same setting: with B2 the figure was 0.33; with B3, 0.16.
Consider B4, for which the AvgOfRo came out at 0.36.
On the same count and under the same terms, with B5 the figure was 0.17; with B6, 0.23; with B7, 0.24.
Same read-out and setting: with B8 the figure was 0.20.
With B9, the AvgOfRo came to 0.20.
Same read-out and setting: next, B10: 0.23; B11: 0.23.
On the same count and under the same terms, with B12 the figure was 0.12.
Take B13: the AvgOfRo is 0.17.

Staying with this series, now noted: baseline fluorescence ratio of probe, no fatty acid.
Consider B6, for which the Ro came to 0.227.
